Test results reported in the supplement of paper PMC6331611.
± gives the standard deviation of the averaged measurements. In all, about 1,600 compounds were measured (“normalized intracellular growth (luminescence, IQM-normalized) in RAW264.7 macrophages”: median about 1, lowest 2% from about 0.43 on). The list shows a part of the results.

Test system: Salmonella enterica serovar Typhimurium SL1344
Assay: normalized intracellular growth (luminescence, IQM-normalized) in RAW264.7 macrophages (fraction of plate interquartile mean); higher = more bacterial growth (less inhibition)
Conditions: 10 µM

| SMILES | normalized intracellular growth (time point: T3 (3 h)) | normalized intracellular growth (time point: Tfinal (~6 h)) |
| --- | --- | --- |
| CC1COc2c(N3CCN(C)CC3)c(F)cc3c(=O)c(C(=O)O)cn1c23 (configuration not stated) | 0.856 ± 0.034 | 0.134 ± 0.0023 |
| CC(C)C(=O)Nc1ccc([N+](=O)[O-])c(C(F)(F)F)c1 | 1.09 ± 0.013 | 1.04 ± 0.029 |
| CC(=O)Oc1cc2c(s1)CCN(C(C(=O)C1CC1)c1ccccc1F)C2 (configuration not stated) | 1.1 ± 0.063 | 1.04 ± 0.15 |
| Cn1cnc([N+](=O)[O-])c1Sc1ncnc2[nH]cnc12 | 1.04 ± 0.028 | 0.852 ± 0.032 |
| CC(=O)OCC[N+](C)(C)C | 0.952 ± 0.033 | 1.11 ± 0.11 |
| OCCN1C[C@H](O)[C@@H](O)[C@H](O)[C@H]1CO | 1.07 ± 0.054 | 1.1 ± 0.24 |
| CC1=C(C/C=C(\C)CCC[C@H](C)CCC[C@H](C)CCCC(C)C)C(=O)c2ccccc2C1=O | 0.968 ± 0.067 | 1.08 ± 0.064 |
| Cc1ncc(COP(=O)([O-])[O-])c(CN(CCN(CC(=O)O)Cc2c(COP(=O)([O-])O)cnc(C)c2O)CC(=O)O)c1O.[Mn].[Na+].[Na+].[Na+] | 0.972 ± 0.075 | 1.17 ± 0.028 |
| CC(=O)Nc1cccc(O)c1 | 1 ± 0.051 | 0.73 ± 0.069 |
| Cc1cnc(C(=O)O)c[n+]1[O-] | 1.04 ± 0.04 | 0.725 ± 0.081 |
| O=C(O)C1(C(=O)O)CCC1.[NH2-].[NH2-].[Pt+2] | 1.01 ± 0.067 | 1.19 ± 0.071 |
| OCc1ccccn1 | 1.02 ± 0.06 | 0.892 ± 0.1 |
| COc1ccc(CN2CCN(C(c3ccc(F)cc3)c3ccc(F)cc3)CC2)c(OC)c1OC | 1.08 ± 0.13 | 0.896 ± 0.23 |
| CC(C)Cc1ccc(C(C)C(=O)O)cc1 (configuration not stated) | 0.9911 ± 0.0085 | 1.18 ± 0.062 |
| CC(C)(C)NC[C@H](O)COc1ccccc1C1CCCC1 | 0.99 ± 0.017 | 1.22 ± 0.12 |
| COc1ccc(C(=O)c2ccccc2O)c(O)c1 | 1 ± 0.047 | 1.24 ± 0.031 |
| COCCc1ccc(OCC(O)CNC(C)C)cc1 (configuration not stated) | 0.997 ± 0.035 | 1.24 ± 0.1 |
| Nc1nc2[nH]cc(CCc3ccc(C(=O)N[C@@H](CCC(=O)O)C(=O)O)cc3)c2c(=O)[nH]1 | 0.975 ± 0.018 | 1.12 ± 0.16 |
| CN1CCC[C@@H]1CCO[C@](C)(c1ccccc1)c1ccc(Cl)cc1 | 0.904 ± 0.032 | 0.915 ± 0.11 |
| CCOc1ccc(NC(C)=O)cc1 | 0.937 ± 0.053 | 0.965 ± 0.052 |
| COc1cc2ncnc(Nc3ccc(F)c(Cl)c3)c2cc1OCCCN1CCOCC1 | 0.955 ± 0.027 | 1.03 ± 0.037 |
| CC(=O)Nc1ccc(C(=O)O)cc1 | 1.06 ± 0.055 | 0.967 ± 0.1 |
| O=C(O)c1ccccc1 | 0.979 ± 0.028 | 1.01 ± 0.07 |

| SMILES | normalized intracellular growth (time point: T3 (3 h)) | normalized intracellular growth (time point: Tfinal (~6 h)) |
| --- | --- | --- |
| CN[C@@H]1[C@H](O[C@H]2[C@H](O[C@H]3[C@H](O)[C@@H](O)[C@H](NC(=N)N)[C@@H](O)[C@@H]3NC(=N)N)O[C@@H](C)[C@]2(O)CO)O[C@@H](CO)[C@H](O)[C@H]1O | 1.02 ± 0.035 | 1.05 ± 0.075 |
| NCc1ccc(S(N)(=O)=O)cc1 | 0.686 ± 0.071 | 0.0766 ± 0.0043 |
| CCc1oc2ccccc2c1C(=O)c1cc(Br)c(O)c(Br)c1 | 1.04 ± 0.022 | 0.988 ± 0.18 |
| CC/C(=C(\c1ccccc1)c1ccc(OCCN(C)C)cc1)c1ccccc1 | 1.01 ± 0.072 | 1 ± 0.067 |
| C#C[C@]1(O)CC[C@H]2[C@@H]3CCC4=C(CCC(=O)C4)[C@H]3CC[C@@]21C | 1.1 ± 0.073 | 1.15 ± 0.16 |
| CC[N+](CC)(CC)CCOc1cccc(OCC[N+](CC)(CC)CC)c1OCC[N+](CC)(CC)CC | 0.927 ± 0.045 | 0.903 ± 0.067 |
| CCOC(=O)[N-]c1c[n+](N2CCOCC2)no1 | 0.956 ± 0.035 | 0.736 ± 0.26 |
| CC(C)(C)NCC(O)c1cc(O)cc(O)c1 (configuration not stated) | 1.08 ± 0.05 | 0.912 ± 0.049 |
| Cc1ccccc1C(OCCN(C)C)c1ccccc1 (configuration not stated) | 0.839 ± 0.072 | 1.48 ± 0.11 |
| O=C1C(O)=C([C@H]2CC[C@H](c3ccc(Cl)cc3)CC2)C(=O)c2ccccc21 | 1.07 ± 0.075 | 1.12 ± 0.22 |
| NC(=O)NC1NC(=O)NC1=O (configuration not stated) | 1.02 ± 0.025 | 1.01 ± 0.1 |
| O=C1CCc2ccc(OCCCCN3CCN(c4cccc(Cl)c4Cl)CC3)cc2N1 | 0.99 ± 0.091 | 1.07 ± 0.25 |
| CN(C)CCOC(c1ccc(Cl)cc1)c1ccccn1 (configuration not stated) | 1.07 ± 0.036 | 0.974 ± 0.078 |
| COc1c2ccoc2cc2oc(=O)ccc12 | 1.04 ± 0.051 | 0.956 ± 0.19 |
| COC(=O)C1=C(C)NC(C)=C(C(=O)OCC(C)C)C1c1ccccc1[N+](=O)[O-] (configuration not stated) | 1.01 ± 0.11 | 0.637 ± 0.23 |
| COC(=O)C1=C(C)NC(C)=C(C(=O)OCCN(C)Cc2ccccc2)C1c1cccc([N+](=O)[O-])c1 (configuration not stated) | 1.01 ± 0.09 | 0.929 ± 0.13 |
| CN1CCN(c2c(F)cc3c(=O)c(C(=O)O)cn4c3c2SCC4)CC1 | 0.982 ± 0.061 | 0.095 ± 0.094 |
| O=C(O)COCCN1CCN([C@H](c2ccccc2)c2ccc(Cl)cc2)CC1 | 0.9958 ± 0.0086 | 0.884 ± 0.058 |
| Cc1cnc(C(=O)NCCc2ccc(S(=O)(=O)NC(=O)NC3CCCCC3)cc2)cn1 | 1.12 ± 0.081 | 0.798 ± 0.34 |
| O=C1[C@H](CC[C@H](O)c2ccc(F)cc2)[C@@H](c2ccc(O)cc2)N1c1ccc(F)cc1 | 0.894 ± 0.034 | 1 ± 0.26 |
| O=S(=O)(O)c1cc(I)c(O)c2ncccc12 | 0.944 ± 0.028 | 0.957 ± 0.19 |
| CCC1NC(=O)c2cc(S(N)(=O)=O)c(Cl)cc2N1 (configuration not stated) | 0.993 ± 0.04 | 1.03 ± 0.16 |
| CC(O)(P(=O)(O)O)P(=O)(O)O | 1.04 ± 0.056 | 0.85 ± 0.23 |

A draw from above in order of molar mass, smallest number first:

| SMILES | normalized intracellular growth (time point: T3 (3 h)) | normalized intracellular growth (time point: Tfinal (~6 h)) |
| --- | --- | --- |
| NC(=O)NC1NC(=O)NC1=O (configuration not stated) | 1.02 ± 0.025 | 1.01 ± 0.1 |
| NCc1ccc(S(N)(=O)=O)cc1 | 0.686 ± 0.071 | 0.0766 ± 0.0043 |
| CC(O)(P(=O)(O)O)P(=O)(O)O | 1.04 ± 0.056 | 0.85 ± 0.23 |
| CC(C)(C)NCC(O)c1cc(O)cc(O)c1 (configuration not stated) | 1.08 ± 0.05 | 0.912 ± 0.049 |
| CN(C)CCOC(c1ccc(Cl)cc1)c1ccccn1 (configuration not stated) | 1.07 ± 0.036 | 0.974 ± 0.078 |
| O=C1C(O)=C([C@H]2CC[C@H](c3ccc(Cl)cc3)CC2)C(=O)c2ccccc21 | 1.07 ± 0.075 | 1.12 ± 0.22 |
| O=C1CCc2ccc(OCCCCN3CCN(c4cccc(Cl)c4Cl)CC3)cc2N1 | 0.99 ± 0.091 | 1.07 ± 0.25 |
| COC(=O)C1=C(C)NC(C)=C(C(=O)OCCN(C)Cc2ccccc2)C1c1cccc([N+](=O)[O-])c1 (configuration not stated) | 1.01 ± 0.09 | 0.929 ± 0.13 |
